Experimental data from paper PMC7862700.
The other results are listed elsewhere or left out. Construct or isoform of the protein are uncertain.

biological target: T1, ETS1 (UniProt P14921); experiment: DAPPL (digital affinity profiling via proximity ligation, sequencing); conditions: 10 mM Tris-HCl pH 7.5, 50 mM NaCl, 1 mM DTT, 4% glycerol, room temperature, 30 min; GST-TFs on glutathione beads, 16-mer random dsDNA library, 0.1% …; high values mean tight binding; double strand, one strand shown; scale: fold enrichment (6-mer frequency, TF over GST control)
T1 sequence: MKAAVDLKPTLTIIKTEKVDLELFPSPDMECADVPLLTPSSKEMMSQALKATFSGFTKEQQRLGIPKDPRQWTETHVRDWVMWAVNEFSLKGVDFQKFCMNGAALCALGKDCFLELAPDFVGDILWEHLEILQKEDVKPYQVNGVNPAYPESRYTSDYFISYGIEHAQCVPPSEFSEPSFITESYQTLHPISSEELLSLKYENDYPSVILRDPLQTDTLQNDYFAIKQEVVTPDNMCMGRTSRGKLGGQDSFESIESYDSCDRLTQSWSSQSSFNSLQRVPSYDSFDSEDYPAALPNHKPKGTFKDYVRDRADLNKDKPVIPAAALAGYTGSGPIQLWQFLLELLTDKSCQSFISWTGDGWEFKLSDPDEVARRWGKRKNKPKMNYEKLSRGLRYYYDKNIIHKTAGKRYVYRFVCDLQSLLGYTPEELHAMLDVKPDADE

Sequence | binding signal
AGTGCT | 1.4
GCGGAA | 1.33
TTTTTC | 1.18
CCTGCT | 1.55
CTTCTT | 1.51
GAAGCG | 1.42
GGGCTC | 1.03
ACGTAT | 1.17
TACCAT | 1.2
GGATGC | 1.19
GGACTT | 1.03
TTATCT | 1.45
ATTTAG | 1.21
ACGACT | 1.26
ATAAGA | 1.01
TGTATA | 1.1
CCAATT | 1.24
CTGTTG | 1.11
AACGGC | 1.22
CCACCC | 1.33

2 entries from above, tab-delimited:
Sequence	binding signal
GAAGCG	1.42
AACGGC	1.22

Following part:

Sequence | binding signal
ACATTT | 1.39
CACAGC | 1.03
TGCAGC | 1.05
ATTGGG | 1.28
TGGGAA | 1
CCACAA | 1.23
GCTGCG | 1.02
TCCAAA | 1.22
ATATAT | 1.49
TCCTTC | 2.23
GGTCTA | 1.14
TCTTCC | 2.75
AATTTC | 1.77
TTCTGA | 1.27
ACAATG | 1.15
TGGTGC | 1.14
CACAAG | 1.16
GCTGCC | 1
CTATTA | 1.29
TCCTGC | 1.56
